From patent US8709303B2, “Dielectric insulation medium” (ABB Research Ltd., priority 2010, dated 2014)

Experiments:
[1] = dielectric strength / electric breakdown field strength of the insulation medium as a function of gas pressure; type: physicochemical
[2] = ozone depletion potential (ODP)
[3] = global warming potential (GWP) over 100 years

| Structure (SMILES) | dielectric strength ([1]; pure gas at the same pressure (1 bar)) | ODP [2] | GWP [3] | dielectric strength ([1]; 1 bar total pressure, small amount of admixture gas added (higher boiling point, dielectric strength higher than SF6)) | dielectric strength relative to air ([1]; at 1 bar) |
| --- | --- | --- | --- | --- | --- |
| FS(F)(F)(F)(F)F [SF6, sulphur hexafluoride SF6, reference compound] | 84 kV/cm |  |  |  |  |
| FC(F)(F)COC(F)(F)F [2,2,2-trifluoroethyl-trifluoromethyl ether (CF3—O—CH2CF3)] |  | 0 | 487 |  |  |
| COC(F)(F)C(F)(F)F [pentafluoro-ethyl-methyl ether, pentafluoro-ethyl-methyl ether (CH3—O—CF2CF3)] |  | 0 | 697 | 68 kV/cm | about 2.4 times |
